Assay results reported in PMC7125355 (Translational Oncology, 2020).

Key:
Assay in all cases: cells
Design in all cases: species or system Ba/F3 stable lines
Details in all cases: Mus musculus, BaF3, 72 h, read-out: Midostaurin / (PKC412)
[1] = test system: BaF3-FLT3-ITD-G697R
[2] = test system: BaF3-tel-FLT3-D835Y
[3] = test system: BaF3-FLT3-ITD-D835Y
[4] = test system: BaF3-tel-FLT3
[5] = test system: BaF3-FLT3-MOLM-ITD
[6] = test system: BaF3-FLT3-D835H
[7] = test system: BaF3-FLT3-D835V
[8] = test system: BaF3-FLT3-ITD-F691I
[9] = test system: BaF3-FLT3-ITD-D835I
[10] = test system: BaF3-tel-FLT3-K663Q
[11] = test system: BaF3-FLT3-ITD-D835N
[12] = test system: BaF3-FLT3-ITD-D835V

CO[C@@H]1[C@H](N(C)C(=O)c2ccccc2)C[C@H]2O[C@]1(C)n1c3ccccc3c3c4c(c5c6ccccc6n2c5c31)C(=O)NC4 [Midostaurin]
IC50 [1]: 116 nM
IC50 [2]: 1 nM
IC50 [3]: 6.4 nM
IC50 [4]: 14.4 nM
IC50 [5]: 4 nM
IC50 [6]: 6.6 nM
IC50 [7]: 3.3 nM
IC50 [8]: 41.9 nM
IC50 [9]: 3.5 nM
IC50 [10]: 102 nM
IC50 [11]: 6.5 nM
IC50 [12]: 3.8 nM
